Data taken from patent publication US11590129B2, “Combination therapy with an antitumor alkaloid” (PHARMA MAR, S.A., priority 2010, dated 2023).

Tested on: MDA-MB-231 human breast adenocarcinoma cell line
Experiment: cells
Conditions: MDA-MB-231, 72 h
Description: a. […] Briefly, cells were harvested and seeded in 96 well microtiter plates at a density of 5,000 cells in 150 μL of culture medium and incubated for 24 hours in drug-free medium before treatment with vehicle alone or test compounds for 72 h.
The cytotoxic effect was measured by the MTT reduction assay, in which 3-(4,5-Dimethylthiazol-2-yl)-2,5-diphenyltetrazolium bromide, a tetrazole, which is reduced to purple formazan in the mitochondria of living cells, was used. MTT (50 μL of 1 mg/mL stock solution) was added to the wells and incubated for 8 hours at 37° C. until formazan crystals were formed. After gently removing the culture medium, DMSO was added to dissolve the insoluble purple formazan product into a colored solution. […] Results were expressed as percentage of control cell growth.
b. In a second set of assays, A549 human tumor cells were incubated with PM01183 in combination with each of the agents mentioned above.
As a visual aid, response values were plotted on a scatter plot with dose ratios given on the x-axis and % response values on the y-axis. […] In cases where response values at the two endpoints were approximately equivalent, points lying above or below this predicted line of additivity could be interpreted as representing antagonistic or synergistic drug interaction, respectively. […]

Work on CC/C(=C(\c1ccccc1)c1ccc(OCCN(C)C)cc1)c1ccccc1 [Tamoxifen, tamoxifen] yielded an IC50 of 13 µM.
